{"source": "PubChem BioAssay AID743454 (Peter MacCallum Cancer Centre, 2014)", "purpose": "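Search for knock-downs that restore vorinostat killing in resistant colon cancer cells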 (primary screen)", "cell system": "human HCT116-VR colon cancer cells, selected for vorinostat resistance", "reagents": "siRNA pool against human genes, 40 nM siRNA pool", "time to read-out": "vorinostat for 24 h, read-out about 72 h after transfection", "challenge": "vorinostat at 2.5 µM final", "detection": "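Cell viability by CellTiter-Fluor and caspase 3/7 activity by luminescence, each scaled to mock wells per plate, duplicates averaged, then robust z-scored over all plates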", "reading the numbers": "viability robust z-score: higher = more viable cells than screen typical; caspase robust z-score: higher = more caspase 3/7 activity than screen typical", "active means": "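a knock-down is a hit when classed RV1 or RV2 for lowered viability, or CA1 or CA2 for caspase activation; those lethal without drug were dropped; hits were retested singly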", "note": "Here is a random part of about 18,000 deposited reagents. 450 of them (2.5%) were called active. 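Single biological run; no consistent viability z cut-off exists, so the class columns, not z-scores, define the calls.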 Unmarked entries are inactive. Reagent sequences are not shown."}
{"target gene": "ZYG11B (zyg-11 family member B, cell cycle regulator)", "viability hit class": "no change", "caspase hit class": "no change", "viability robust z-score": 0.66, "caspase robust z-score": -0.27}
{"target gene": "GPR17 (G protein-coupled receptor 17)", "viability hit class": "no change", "caspase hit class": "no change", "viability robust z-score": -0.42, "caspase robust z-score": -1.24}
{"target gene": "SPINT1 (serine peptidase inhibitor, Kunitz type 1)", "viability hit class": "no change", "caspase hit class": "no change", "viability robust z-score": -1.25, "caspase robust z-score": 2.49}
{"target gene": "ID2 (inhibitor of DNA binding 2)", "viability hit class": "no change", "caspase hit class": "no change", "viability robust z-score": -0.04, "caspase robust z-score": -0.89}
{"target gene": "MFSD11 (major facilitator superfamily domain containing 11)", "viability hit class": "no change", "caspase hit class": "no change", "viability robust z-score": -0.12, "caspase robust z-score": -0.02}
{"target gene": "PRLR (prolactin receptor)", "viability hit class": "no change", "caspase hit class": "no change", "viability robust z-score": -0.22, "caspase robust z-score": -0.37}
{"target gene": "ABL1 (ABL proto-oncogene 1, non-receptor tyrosine kinase)", "viability hit class": "no change", "caspase hit class": "no change", "viability robust z-score": 1.04, "caspase robust z-score": 0.79}
{"target gene": "UTP25 (UTP25 small subunit processome component)", "viability hit class": "no change", "caspase hit class": "no change", "viability robust z-score": -2.06, "caspase robust z-score": 3.41}
{"target gene": "COPS6 (COP9 signalosome subunit 6)", "viability hit class": "no change", "caspase hit class": "no change", "viability robust z-score": -0.65, "caspase robust z-score": 4.09}
{"target gene": "GBX2 (gastrulation brain homeobox 2)", "viability hit class": "no change", "caspase hit class": "no change", "viability robust z-score": -0.31, "caspase robust z-score": 3.69}
{"target gene": "ZNF202 (zinc finger protein 202)", "viability hit class": "no change", "caspase hit class": "no change", "viability robust z-score": 0.12, "caspase robust z-score": 0.09}
{"target gene": "DUSP6 (dual specificity phosphatase 6)", "viability hit class": "no change", "caspase hit class": "no change", "viability robust z-score": -0.18, "caspase robust z-score": -0.52}
{"target gene": "NDST2 (N-deacetylase and N-sulfotransferase 2)", "viability hit class": "no change", "caspase hit class": "no change", "viability robust z-score": 0.47, "caspase robust z-score": -1.27}
{"target gene": "SDC2 (syndecan 2)", "viability hit class": "no change", "caspase hit class": "no change", "viability robust z-score": -0.78, "caspase robust z-score": 1.01}

2 entries from above, ordered by “viability robust z-score”, descending:
{"target gene": "ABL1 (ABL proto-oncogene 1, non-receptor tyrosine kinase)", "viability hit class": "no change", "caspase hit class": "no change", "viability robust z-score": 1.04, "caspase robust z-score": 0.79}
{"target gene": "UTP25 (UTP25 small subunit processome component)", "viability hit class": "no change", "caspase hit class": "no change", "viability robust z-score": -2.06, "caspase robust z-score": 3.41}
